Reference: PubChem BioAssay AID2685 (National Center for Advancing Translational Sciences (NCATS), 2010)
Some of the results follow. The main result of the screen is listed elsewhere. These columns were measured beside it and carry no call. Most of these compounds were active or inconclusive in the main read-out, so they are no random draw. Potencies come from curve fits of mixed quality, noted in brackets.

Assay: qHTS Assay for Lipid Storage Modulators in Drosophila S3 Cells;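 on cell number change: cells counted by Cell Tracker Red CMTPX staining in the red channel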
Conditions: BODIPY lipid droplet fluorescence, 18-24 h; for cell number change: measured here: cell count max response, cells fed with added oleic acid
Method in brief: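 Laser-scanning cytometry quantifies lipid droplet accumulation (500–530 nm total intensity; droplet/cell object ratio) in oleic acid-fed (400 uM added) Drosophila S3 cells treated with a concentration series. 20 uM Triacsin C defined 100% inhibition.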

[1] = measured here: cell number channel AC50, cells fed with added oleic acid
[2] = measured here: lipid fluorescence (Fed channel) AC50, cells fed with added oleic acid

| SMILES | cell number change | AC50 [1] | AC50 [2] |
| --- | --- | --- | --- |
| CCOc1cc(N2CCOCC2)c(OCC)cc1NC(=O)c1ccc2ccccc2n1 | -116% | 29.1 µM [falling, single point] | 0.116 µM [falling, full curve, poor fit] |
| Cc1nnc2n(-c3ccc(Cl)cc3)c(=O)c3c4c(sc3n12)CN(C)CC4 | -9.39% | 3.66 µM [rising, partial curve] | 0.517 µM [falling, full curve] |
| CCCS(=O)(=O)c1nc(C)cc(C)c1S(C)(=O)=O | -49.5% | 29.1 µM [falling, single point] | 29.1 µM [falling, single point] |
| CC(CC(=O)N1CCN(c2ccccc2)CC1)c1ccccc1 (stereo not given) | – | – | 16.4 µM [falling, single point] |
| Cc1cc(C)nc(NC(=NCCc2c[nH]c3ccccc23)NC(=O)Nc2ccccc2)n1 | -36.5% | 8.2 µM [falling, partial curve, poor fit] | 8.2 µM [falling, partial curve] |
| O=S(=O)(NCC(c1ccco1)N1CCc2ccccc21)c1ccccc1 (stereo not given) | -2.05% | – | 32.6 µM [falling, single point] |
| COc1ccc(Cl)cc1N(CC(=O)N1CCCC1)S(=O)(=O)c1ccc(C)cc1 | -7.89% | – | – |
| CC/C(=N\NS(C)(=O)=O)c1ccccc1 | 4.68% | – | – |
| COc1ccc(C(=O)COc2ccccc2C(=O)Nc2ccccc2)cc1 | -44% | 0.92 µM [falling, full curve] | – |
| CC(=O)Nc1ccc(/C=C/C(=O)c2ccc3c(c2)OCCO3)cc1 | -28.6% | 1.64 µM [falling, full curve, poor fit] | – |
| Cc1ccc(C(=O)Nc2cccc(S(=O)(=O)N3CCCC3)c2)o1 | -7.39% | – | – |
| Cc1ccc2nc(NCCCO)nc(-c3ccccc3)c2c1 | 15.3% | – | 8.2 µM [rising, partial curve] |
| O=C1C2C3C=CC(CC3)C2C(=O)N1c1cccc(Br)c1 (stereo not given) | 0.263% | – | 3.26 µM [falling, single point] |
| CC1c2cc3c(cc2CCN1S(=O)(=O)c1ccccc1)OCCCO3 (stereo not given) | -8.66% | – | – |
| CC[n+]1c(/C=C(\C)Nc2ccccc2)sc2ccccc21 | 58.7% | 29.1 µM [rising, single point] | 2.91 µM [rising, full curve] |
| CCCn1c(=O)c(C(=O)Nc2cccc(C)n2)c(O)c2ccccc21 | -5.87% | – | – |
| CCN1CCN(Cc2ccc(NC(=O)c3cc(NC(=O)C(=O)c4c[nH]c5ccccc45)cc(OC)c3)cc2C(F)(F)F)CC1 | -43.2% | 29.1 µM [falling, single point] | 29.1 µM [falling, single point] |
| Cc1nc(Nc2ccc(F)cc2)[nH]c(=O)c1CCC(C)C | -33.5% | 3.66 µM [falling, full curve] | 7.31 µM [falling, partial curve] |
| COC(=O)C1=C(C(=O)OC)[C@@H]2N(Cc3ccccc3)c3ccccc3[C@@]23C[C@@H](C(=O)OC)N(C(C)=O)C3=N1 | -35.1% | 6.51 µM [falling, partial curve, poor fit] | 6.51 µM [falling, full curve, poor fit] |
| COc1ccc(C(=O)OCC(=O)NC(C)CCc2ccccc2)cc1OC (stereo not given) | – | 0.58 µM [rising, single point] | – |

| SMILES | cell number change | AC50 [1] | AC50 [2] |
| --- | --- | --- | --- |
| O=C1NN(c2ccccc2)C(=O)/C1=C/c1cccs1 | -47.8% | 18.4 µM [falling, single point] | 0.058 µM [falling, full curve] |
| CCN(CC)c1ccc(NC(=O)c2ccc3c(c2)c(C)c(C)n3C)cc1 | -11.9% | – | – |
| N#Cc1c(-c2cccc(Br)c2)cc(-c2ccco2)[nH]c1=O | 8.36% | 2.31 µM [rising, partial curve, poor fit] | – |
| CC(C)c1ccc(NC(=O)[C@@H](NC(=O)N2CC(=O)Nc3ccccc32)C(C)C)cc1 | -15.3% | – | – |
| O=C(NCC(c1ccco1)N1CCN(c2ccc(F)cc2)CC1)c1ccc2c(c1)OCO2 (stereo not given) | -6.01% | 0.00461 µM [rising, full curve, poor fit] | 0.00411 µM [rising, full curve, poor fit] |
| COc1ccc(CC2(C)OC(c3ccc(C)cc3)=NN2C(C)=O)cc1 (stereo not given) | 30.9% | 10.3 µM [rising, single point] | – |
| O=C(CCC1CCN(C(=O)c2ccco2)CC1)NCc1ccc(F)cc1 | 15.3% | 4.11 µM [rising, single point] | 29.1 µM [rising, single point] |
| NC(=O)c1ccccc1OCC(=O)N1CCCC1c1ccc2c(c1)OCCCO2 (stereo not given) | -12.5% | – | – |
| CC(Sc1nc2ncc(Cl)cc2[nH]1)C(=O)NC1(C#N)CCCCC1 (stereo not given) | 3.31% | – | – |
| Cc1cccc(NC(=O)CSc2nnc(-c3ccc(S(=O)(=O)N4CCOCC4)cc3)n2C)c1 | -3.42% | – | – |
| CC(C(=O)N1CCc2ccccc21)N1CCN(S(=O)(=O)c2cccc(C(F)(F)F)c2)CC1 (stereo not given) | -4.96% | – | 0.00461 µM [falling, full curve, poor fit] |
| Cc1c(Cl)cccc1Nc1nc(N)nc(CSc2ncccn2)n1 | – | 0.0326 µM [rising, full curve, poor fit] | 0.58 µM [rising, full curve, poor fit] |
| CC(=O)Nc1ccc(-c2csc(NC(=O)Cc3cccc(F)c3)n2)cc1 | 3.04% | – | 6.51 µM [rising, single point] |
| CCOC(=O)Cc1csc(NC(=O)Cc2cccs2)n1 | -1.75% | – | 0.82 µM [falling, full curve, poor fit] |
| COc1ccc(C)cc1S(=O)(=O)N1CCN(c2cccc(C(F)(F)F)c2)CC1 | 199% | 20.6 µM [rising, single point] | 23.1 µM [rising, single point] |
| CCOC(=O)C1=C(C)OC(N)=C(C#N)C1C1CCCCC1 (stereo not given) | -47.4% | 2.06 µM [falling, partial curve] | 23.1 µM [falling, single point] |
| O=C(NCC1CCCO1)/C(=C\c1ccco1)NC(=O)c1ccc(Cl)cc1 (stereo not given) | 0.596% | – | 0.731 µM [falling, single point] |
| Cc1nc2ccccc2nc(C)c1=NOCc1ccc(C#N)cc1 | 19.9% | – | 25.9 µM [rising, partial curve] |
| Cc1cc(/C=C2/SC(=O)N(CC(=O)N3CCCC3)C2=O)c(C)n1C | -7.69% | – | – |
| COCCCN1C(=O)C(O)=C(C(C)=O)C1c1cccc(F)c1 (stereo not given) | -4.9% | – | 0.461 µM [falling, full curve, poor fit] |

Reformatted as tab-separated lines: entries from further up
SMILES	cell number change	AC50 [1]	AC50 [2]
CCCn1c(=O)c(C(=O)Nc2cccc(C)n2)c(O)c2ccccc21	-5.87%	–	–
O=C(CCC1CCN(C(=O)c2ccco2)CC1)NCc1ccc(F)cc1	15.3%	4.11 µM [rising, single point]	29.1 µM [rising, single point]
Cc1cccc(NC(=O)CSc2nnc(-c3ccc(S(=O)(=O)N4CCOCC4)cc3)n2C)c1	-3.42%	–	–
Cc1cc(/C=C2/SC(=O)N(CC(=O)N3CCCC3)C2=O)c(C)n1C	-7.69%	–	–

Another view of some results above:
SMILES | cell number change | AC50 [1] | AC50 [2]
CCOc1cc(N2CCOCC2)c(OCC)cc1NC(=O)c1ccc2ccccc2n1 | -116% | 29.1 µM [falling, single point] | 0.116 µM [falling, full curve, poor fit]
Cc1nnc2n(-c3ccc(Cl)cc3)c(=O)c3c4c(sc3n12)CN(C)CC4 | -9.39% | 3.66 µM [rising, partial curve] | 0.517 µM [falling, full curve]

Next entries:

| SMILES | cell number change | AC50 [1] | AC50 [2] |
| --- | --- | --- | --- |
| COc1cc(/C=N/NC(=O)c2ccccn2)ccc1OC(=O)c1cccs1 | 2.27% | – | 23.1 µM [falling, single point] |
| O=C(CN1C(=O)c2ccccc2C1=O)OCC(=O)c1ccc(F)cc1 | -25% | 6.51 µM [rising, partial curve] | – |
| O=C(CSc1n[nH]c(-c2cccnc2)n1)Nc1ccc([N+](=O)[O-])cc1 | 5.56% | – | 29.1 µM [falling, single point] |
| O=C(c1cc(-c2ccccc2Cl)nc2ccccc12)N1CCC1 | 33% | 29.1 µM [rising, single point] | – |
| O=C(CCC(=O)Nc1ccccc1Cl)N/N=C/c1c[nH]c2ccccc12 | -3.46% | – | – |
| COc1ccccc1Oc1ccccc1C(=O)O | -40.6% | 2.91 µM [falling, full curve] | 16.4 µM [falling, partial curve] |
| COC(=O)[C@@]12CCCCN1[C@H](c1ccc(-c3cccc(Cl)c3)c(OC)c1)[C@H]1C(=O)N(C)C(=O)[C@H]12 | 21.9% | – | 0.517 µM [rising, full curve] |
| COc1cccc(N2CCN(CC(=O)Nc3ccnn3C3CCCC3)CC2)c1 | – | – | 2.31 µM [falling, partial curve, poor fit] |
| O=C(OCC(=O)N1CCCCCC1)c1ccc(S(=O)(=O)N2CCOCC2)cc1 | -2.6% | – | 0.00411 µM [rising, full curve, poor fit] |
| N#CNC(=Nc1cccc(Cl)c1)Oc1ccccc1 | -14.5% | 0.00411 µM [falling, full curve, poor fit] | 0.00461 µM [falling, full curve, poor fit] |
| COc1ccc(CCn2c(=N)c(C(=O)NCCN3CCOCC3)cc3c(=O)n4cccc(C)c4nc32)cc1OC | 18.6% | – | 6.51 µM [falling, single point] |
| c1ccc(C2Nc3cccc4cccc(c34)N2)cc1 | -11.1% | – | 11.6 µM [falling, partial curve, poor fit] |
| COc1ccc(CCNC(=O)Cn2cc(C(F)(F)F)cc(Cl)c2=O)cc1OC | -18.2% | – | 7.31 µM [falling, full curve, poor fit] |
| Cc1ccc(CNC(=O)C(Cc2ccccc2)n2cccc2)cc1 (stereo not given) | 4.35% | – | 6.51 µM [falling, single point] |
| CC(C)NC(=S)N1CCN(S(C)(=O)=O)CC1 | 37.7% | 29.1 µM [rising, single point] | – |
| COc1ccc(NC2=C(c3ccc(OC)cc3)C(=O)c3ccccc32)cc1 | -0.141% | – | 0.731 µM [rising, full curve, poor fit] |
| O=C(Nc1ccnn1C1CCN(Cc2ccc(OC(F)F)cc2)CC1)C1CCCC1 | 17% | – | – |
| Cc1ccc(S(=O)(=O)N2CCN(C(=O)CN3C(=O)c4ccc([N+](=O)[O-])cc4C3=O)CC2)c(C)c1 | -12.9% | – | 2.91 µM [falling, full curve, poor fit] |
